No constants are given. Whether binding was seen depends on the method and setting. In cells and extracts the contact can be indirect.
Biological target: RCC2-YFP (UniProt Q9P258)
Test: co-IP; pre-cleared lysate of HeLa cells expressing YFP or RCC2-YFP; rabbit anti-GFP antibody overnight at 4 °C, protein A-Sepharose 1 h, three washes in lysis buffer; Western blot with anti-GFP, anti-Rac1, anti-cdc42 or anti-Rho A

Amino acid sequences for entries named in this document (tags omitted).
UniProt P61586: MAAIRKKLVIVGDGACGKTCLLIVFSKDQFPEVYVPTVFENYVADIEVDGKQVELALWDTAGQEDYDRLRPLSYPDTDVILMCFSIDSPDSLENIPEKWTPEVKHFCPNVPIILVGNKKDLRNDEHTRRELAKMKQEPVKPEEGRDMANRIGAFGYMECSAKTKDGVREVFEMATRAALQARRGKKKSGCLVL

Rho A (from UniProt P61586 1-193)
binding: no binding

Source: publication PMC5763756
